PubChem BioAssay AID652259 | Drosophila RNAi Screening Center, 2013
The deposit covers about 22,000 reagents; this is a random part of those that have a named target and a result. Of all reagents, 233 (1.1%) are marked active. 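Light values are raw, unnormalised plate reads; the ratio scores behind the reporter calls were not deposited.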 Entries without a mark were called inactive. The numbers tell different reagents against one gene apart. Not given: the amount of reagent, the time to read-out, the dose of the treatment.

Screen: 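Knock-downs that push a Wingless-driven reporter up or down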 (primary screen)
System: Drosophila clone 8 imaginal disc epithelial cells
Reagents: long dsRNA against Drosophila genes
Challenge: pathway stimulated by co-transfected Wingless expression plasmid
Detection: 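Dual luciferase reads per well after Wingless plasmid stimulation: reporter firefly light and Renilla control light; activity is firefly divided by Renilla, a ratio not deposited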
Scale: firefly reporter light: higher = more Wg reporter light, before normalisation; Renilla control light: higher = more transfected or surviving cells
Call rule: 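Strong candidates differ from their plate mean by at least two out of four per-plate statistical tests; weak candidates meet just one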
Calls: active = candidate regulator (raises or lowers reporter); inactive = not a candidate

| gene | reagent | reporter change call, replicate 1 | firefly reporter light, replicate 1 | firefly reporter light, replicate 2 | Renilla control light, replicate 1 | Renilla control light, replicate 2 |
| --- | --- | --- | --- | --- | --- | --- |
| Ugt317A1 | 1 | – | 3285 | 8120 | 944 | 3312 |
| cGlr1 | 1 | – | 4087 | – | 2304 | – |
| SkpE | 1 | – | 24250 | – | 13419 | – |
| CG12229 | 1 | – | 5837 | – | 2413 | – |
| Obp56b | 1 | – | 6873 | – | 2013 | – |
| CG14990 | 1 | – | 7017 | – | 2224 | – |
| dmrt93B | 1 | – | 13941 | – | 3221 | – |
| Taf2 | 1 | Wg reporter activity raised (active) | 16275 | – | 1622 | – |
| CG10581 | 1 | – | 18016 | – | 6256 | – |
| Arc42 | 1 | – | 18149 | – | 3549 | – |
| Arc42 | 2 | – | 25140 | – | 5121 | – |
| Trf5 | 1 | – | 2714 | 5714 | 1325 | 3288 |
| CG42552 (retired record) | 1 | – | 2697 | – | 1036 | – |
| lectin-21Cb | 1 | – | 3969 | 5937 | 1328 | 2461 |
| CG34309 | 1 | – | 14824 | – | 2544 | – |
| CG33725 | 1 | – | 2896 | – | 1521 | – |
| sca | 1 | – | 5450 | – | 1853 | – |
| CG42755 (retired record) | 1 | – | 2232 | – | 985 | – |
| CG42755 (retired record) | 2 | – | 3008 | – | 1516 | – |
| papi | 1 | – | 9288 | – | 2714 | – |

6 consecutive reagents from above, quoted:
| gene | reagent | reporter change call, replicate 1 | firefly reporter light, replicate 1 | firefly reporter light, replicate 2 | Renilla control light, replicate 1 | Renilla control light, replicate 2 |
| --- | --- | --- | --- | --- | --- | --- |
| Arc42 | 1 | – | 18149 | – | 3549 | – |
| Arc42 | 2 | – | 25140 | – | 5121 | – |
| Trf5 | 1 | – | 2714 | 5714 | 1325 | 3288 |
| CG42552 (retired record) | 1 | – | 2697 | – | 1036 | – |
| lectin-21Cb | 1 | – | 3969 | 5937 | 1328 | 2461 |
| CG34309 | 1 | – | 14824 | – | 2544 | – |

More records follow.
| gene | reagent | reporter change call, replicate 1 | firefly reporter light, replicate 1 | firefly reporter light, replicate 2 | Renilla control light, replicate 1 | Renilla control light, replicate 2 |
| --- | --- | --- | --- | --- | --- | --- |
| Tmep | 1 | – | 16857 | – | 4392 | – |
| Ptp10D | 1 | – | 14650 | – | 7810 | – |
| Nup154 | 1 | – | 14181 | – | 1485 | – |
| CR16735 | 1 | – | 19280 | – | 5429 | – |
| smg | 1 | – | 4860 | – | 2235 | – |
| Cyp9c1 | 1 | – | 8928 | – | 3638 | – |
| CG31388 | 1 | – | 10232 | – | 3276 | – |
| CG10445 | 1 | – | 16640 | – | 4021 | – |
| CG5664 | 1 | – | 3584 | – | 1302 | – |
| CG4650 | 1 | – | 3154 | 6139 | 1552 | 3392 |
| Not11 | 1 | – | 2790 | 7543 | 776 | 2701 |
| CG32548 | 1 | – | 21549 | – | 10816 | – |
| CG32548 | 2 | – | 2874 | 6299 | 761 | 2032 |
| cN-IIIB | 1 | – | 9188 | – | 3405 | – |
| CG15764 | 1 | – | 18697 | – | 7661 | – |
| CG2278 | 1 | – | 14521 | – | 7205 | – |
| Or63a | 1 | – | 6633 | – | 3252 | – |
| rho-6 | 1 | – | 1645 | 5933 | 1095 | 2856 |
| CG1631 | 1 | – | 15731 | – | 8777 | – |
| CG9166 | 1 | – | 4219 | – | 1980 | – |
| CG2691 | 1 | – | 1957 | 5527 | 956 | 2144 |
| Tehao | 1 | – | 2103 | 8477 | 916 | 2637 |
| CG15368 | 1 | – | 16171 | – | 4372 | – |
| MSBP | 1 | – | 1833 | 7816 | 861 | 2165 |
| CG10055 | 1 | – | 13444 | – | 3915 | – |
| Achl | 1 | Wg reporter activity lowered | 4056 | – | 1920 | – |
| sro | 1 | – | 7192 | – | 2107 | – |
| sip1 | 1 | – | 1111 | 6147 | 512 | 2155 |
| sip1 | 2 | – | 4.41e5 | 4.51e5 | 1.53e5 | 64070 |
